Data on four molecules can be found in article PMC11894413.

These are yes or no findings as the source states them, for the method shown. Some entries that bind do so weakly or less than the wild type.

Holding throughout (experiment): cryo-EM structure; purified yeast TRiC, 1 mg/ml, with 1 mM ADP and 5 mM MgCl2, 15 min at 30 °C before freezing; five conformational states S1-S5 (closed to open) from one sample; contacts differ between the states; both purified
Holding throughout (conditions): remark: other sources report otherwise

The target in assay [1] is T1, CCT4 subunit of yeast TRiC/CCT (yeast), P39078.
T1 chain: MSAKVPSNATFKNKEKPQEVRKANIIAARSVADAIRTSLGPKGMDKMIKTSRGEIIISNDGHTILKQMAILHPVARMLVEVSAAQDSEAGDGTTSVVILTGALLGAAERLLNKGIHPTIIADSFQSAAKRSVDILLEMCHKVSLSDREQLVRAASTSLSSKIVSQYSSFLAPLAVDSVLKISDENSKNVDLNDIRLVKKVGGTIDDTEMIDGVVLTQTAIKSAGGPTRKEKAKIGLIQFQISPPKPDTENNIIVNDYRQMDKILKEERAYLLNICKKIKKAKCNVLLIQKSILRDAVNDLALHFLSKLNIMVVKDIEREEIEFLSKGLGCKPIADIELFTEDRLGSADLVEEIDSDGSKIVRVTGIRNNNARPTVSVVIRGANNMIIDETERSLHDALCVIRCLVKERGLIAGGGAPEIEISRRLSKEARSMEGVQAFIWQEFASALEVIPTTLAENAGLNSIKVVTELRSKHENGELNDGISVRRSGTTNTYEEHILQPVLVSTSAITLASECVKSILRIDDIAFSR

For assay [2], the target named is T2, CCT7 subunit of yeast TRiC/CCT (yeast), P42943.
T2 chain: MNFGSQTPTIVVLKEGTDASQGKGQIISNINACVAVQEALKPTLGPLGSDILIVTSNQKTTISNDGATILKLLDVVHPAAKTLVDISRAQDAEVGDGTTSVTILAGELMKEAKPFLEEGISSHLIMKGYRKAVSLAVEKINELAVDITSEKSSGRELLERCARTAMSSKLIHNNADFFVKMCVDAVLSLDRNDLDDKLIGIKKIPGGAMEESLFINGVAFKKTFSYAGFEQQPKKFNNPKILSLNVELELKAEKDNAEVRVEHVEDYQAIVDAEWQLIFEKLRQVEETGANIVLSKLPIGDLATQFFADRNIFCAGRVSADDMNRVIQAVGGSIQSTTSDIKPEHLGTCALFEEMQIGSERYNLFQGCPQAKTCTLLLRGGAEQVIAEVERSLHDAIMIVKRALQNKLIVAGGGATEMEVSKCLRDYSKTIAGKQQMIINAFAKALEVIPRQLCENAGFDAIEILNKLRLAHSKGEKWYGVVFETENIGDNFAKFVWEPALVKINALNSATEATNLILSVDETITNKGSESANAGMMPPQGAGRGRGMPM

Assay [3] concerns the target T3, CCT8 subunit of yeast TRiC/CCT (yeast), P47079.
T3 chain: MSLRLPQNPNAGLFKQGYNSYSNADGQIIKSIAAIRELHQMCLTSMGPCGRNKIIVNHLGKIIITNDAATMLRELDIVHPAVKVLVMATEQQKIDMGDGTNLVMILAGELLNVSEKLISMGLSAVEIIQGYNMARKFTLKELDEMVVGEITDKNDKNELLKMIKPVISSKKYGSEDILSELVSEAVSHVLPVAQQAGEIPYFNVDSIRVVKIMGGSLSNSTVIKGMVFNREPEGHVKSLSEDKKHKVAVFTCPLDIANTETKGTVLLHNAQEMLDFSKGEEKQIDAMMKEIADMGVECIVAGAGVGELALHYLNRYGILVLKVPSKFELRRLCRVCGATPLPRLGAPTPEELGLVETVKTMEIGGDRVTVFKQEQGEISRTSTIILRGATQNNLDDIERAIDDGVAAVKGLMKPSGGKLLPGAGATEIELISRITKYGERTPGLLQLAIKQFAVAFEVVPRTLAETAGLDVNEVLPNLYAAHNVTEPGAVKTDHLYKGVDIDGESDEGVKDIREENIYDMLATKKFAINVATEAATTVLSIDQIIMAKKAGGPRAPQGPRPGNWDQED

In assay [4] the target is CCT6 subunit of yeast TRiC/CCT (yeast), P39079.
The target in assay [5] is CCT1 subunit of yeast TRiC/CCT (yeast), P12612.

B1: CCT5 subunit of yeast TRiC/CCT, P40413 1-562 (protein)
chain: MAARPQQPPMEMPDLSNAIVAQDEMGRPFIIVKDQGNKKRQHGLEAKKSHILAARSVASIIKTSLGPRGLDKILISPDGEITITNDGATILSQMELDNEIAKLLVQLSKSQDDEIGDGTTGVVVLASALLDQALELIQKGIHPIKIANGFDEAAKLAISKLEETCDDISASNDELFRDFLLRAAKTSLGSKIVSKDHDRFAEMAVEAVINVMDKDRKDVDFDLIKMQGRVGGSISDSKLINGVILDKDFSHPQMPKCVLPKEGSDGVKLAILTCPFEPPKPKTKHKLDISSVEEYQKLQTYEQDKFKEMIDDVKKAGADVVICQWGFDDEANHLLLQNDLPAVRWVGGQELEHIAISTNGRIVPRFQDLSKDKLGTCSRIYEQEFGTTKDRMLIIEQSKETKTVTCFVRGSNKMIVDEAERALHDSLCVVRNLVKDSRVVYGGGAAEVTMSLAVSEEADKQRGIDQYAFRGFAQALDTIPMTLAENSGLDPIGTLSTLKSKQLKEKISNIGVDCLGYGSNDMKELFVVDPFIGKKQQILLATQLCRMILKIDNVIISGKDEY
Consider B1, for which the binding entry in assay [1] and in assay [2] was “binds” each time.

B2: CCT7 subunit of yeast TRiC/CCT, P42943 1-550 (protein)
chain: MNFGSQTPTIVVLKEGTDASQGKGQIISNINACVAVQEALKPTLGPLGSDILIVTSNQKTTISNDGATILKLLDVVHPAAKTLVDISRAQDAEVGDGTTSVTILAGELMKEAKPFLEEGISSHLIMKGYRKAVSLAVEKINELAVDITSEKSSGRELLERCARTAMSSKLIHNNADFFVKMCVDAVLSLDRNDLDDKLIGIKKIPGGAMEESLFINGVAFKKTFSYAGFEQQPKKFNNPKILSLNVELELKAEKDNAEVRVEHVEDYQAIVDAEWQLIFEKLRQVEETGANIVLSKLPIGDLATQFFADRNIFCAGRVSADDMNRVIQAVGGSIQSTTSDIKPEHLGTCALFEEMQIGSERYNLFQGCPQAKTCTLLLRGGAEQVIAEVERSLHDAIMIVKRALQNKLIVAGGGATEMEVSKCLRDYSKTIAGKQQMIINAFAKALEVIPRQLCENAGFDAIEILNKLRLAHSKGEKWYGVVFETENIGDNFAKFVWEPALVKINALNSATEATNLILSVDETITNKGSESANAGMMPPQGAGRGRGMPM
In the case of B2, the binding result in assay [3] is recorded as “binds”.

B3: CCT8 subunit of yeast TRiC/CCT, P47079 1-568 (protein)
chain: MSLRLPQNPNAGLFKQGYNSYSNADGQIIKSIAAIRELHQMCLTSMGPCGRNKIIVNHLGKIIITNDAATMLRELDIVHPAVKVLVMATEQQKIDMGDGTNLVMILAGELLNVSEKLISMGLSAVEIIQGYNMARKFTLKELDEMVVGEITDKNDKNELLKMIKPVISSKKYGSEDILSELVSEAVSHVLPVAQQAGEIPYFNVDSIRVVKIMGGSLSNSTVIKGMVFNREPEGHVKSLSEDKKHKVAVFTCPLDIANTETKGTVLLHNAQEMLDFSKGEEKQIDAMMKEIADMGVECIVAGAGVGELALHYLNRYGILVLKVPSKFELRRLCRVCGATPLPRLGAPTPEELGLVETVKTMEIGGDRVTVFKQEQGEISRTSTIILRGATQNNLDDIERAIDDGVAAVKGLMKPSGGKLLPGAGATEIELISRITKYGERTPGLLQLAIKQFAVAFEVVPRTLAETAGLDVNEVLPNLYAAHNVTEPGAVKTDHLYKGVDIDGESDEGVKDIREENIYDMLATKKFAINVATEAATTVLSIDQIIMAKKAGGPRAPQGPRPGNWDQED
For B3, in assay [4], the binding result was “binds”.

B4: CCT4 subunit of yeast TRiC/CCT, P39078 1-528 (protein)
chain: MSAKVPSNATFKNKEKPQEVRKANIIAARSVADAIRTSLGPKGMDKMIKTSRGEIIISNDGHTILKQMAILHPVARMLVEVSAAQDSEAGDGTTSVVILTGALLGAAERLLNKGIHPTIIADSFQSAAKRSVDILLEMCHKVSLSDREQLVRAASTSLSSKIVSQYSSFLAPLAVDSVLKISDENSKNVDLNDIRLVKKVGGTIDDTEMIDGVVLTQTAIKSAGGPTRKEKAKIGLIQFQISPPKPDTENNIIVNDYRQMDKILKEERAYLLNICKKIKKAKCNVLLIQKSILRDAVNDLALHFLSKLNIMVVKDIEREEIEFLSKGLGCKPIADIELFTEDRLGSADLVEEIDSDGSKIVRVTGIRNNNARPTVSVVIRGANNMIIDETERSLHDALCVIRCLVKERGLIAGGGAPEIEISRRLSKEARSMEGVQAFIWQEFASALEVIPTTLAENAGLNSIKVVTELRSKHENGELNDGISVRRSGTTNTYEEHILQPVLVSTSAITLASECVKSILRIDDIAFSR
For B4, in assay [5], the binding entry is “binds”.
